Laboratory results as given in patent US20210252032A1, “DRUGS FOR GRP78 CELL SURFACE TRANSLOCATION AND PAR-4 SECRETION” (University of Kentucky Research Foundation, priority 2020, published 2021).
Entries after “also recorded” stand apart in the source; their conditions may differ. At least one compound was matched to its structure with a doubt left.

Legend:
[1] = tested on: lung cancer cells; assay: GRP78 cell surface translocation in lung cancer cells (FIG. 2); format: cell-based; settings: nanomolar concentrations
Excerpt: To maximize the apoptotic effect of secreted Par-4 on lung tumors, the second active agent is effective to elevate GRP78 on the surface of cancer cells and thereby complements the apoptotic action of secreted Par-4. […] Approximately 5% of patients with non-small cell lung cancer (NSCLC) have tumors that contain an inversion in chromosome 2 that juxtaposes the 5′ end of the echinoderm microtubule-associated protein-like 4 (EML4) gene with the 3′ end of the ALK gene. This juxtaposition results in the fusion oncogene called EML4-ALK. ALK+ tumors are highly sensitive to therapy with ALKtargeted inhibitors. […] On the other hand, phosphorylation of SRC at tyrosine 530 (Y530) by C-terminal SRC kinase (Csk) and Csk homologous kinase results in inactivation of SRC.

[2] = tested on: tyrosine-protein kinase SRC; assay: SRC activation (FIG. 3); format: cell-based; settings: lung cancer cells
Excerpt: Dephosphorylation of Y530 by phosphatases results in autophosphorylation of SRC at Y419, leading to activation. SRC activation triggers a signaling cascade that prevents retrograde trafficking of proteins from the Golgi to the ER and promotes GRP78 translocation from the Golgi to the cell surface.

Row | Structure (SMILES) | GRP78 cell surface translocation [1] | activation of SRC [2]
1 | CN(C)C/C=C/C(=O)Nc1cc2c(Nc3ccc(F)c(Cl)c3)ncnc2cc1O[C@H]1CCOC1 [afatinib] | induce cell surface expression of GRP78; also recorded: induced GRP78 cell surface translocation | 
2 | COc1cc(N2CCC(N3CCN(C)CC3)CC2)ccc1Nc1ncc(Cl)c(Nc2ccccc2P(C)(C)=O)n1 [brigatinib] | induce cell surface expression of GRP78; also recorded: induced GRP78 cell surface translocation | cause the activation of SRC
3 | C[C@H]1Oc2cc(cnc2N)-c2c(nn(C)c2C#N)CN(C)C(=O)c2ccc(F)cc21 [lorlatinib] |  | cause the activation of SRC
